PubChem BioAssay AID1224830 – NIAID, 2016
Shown is a random part of about 18,000 deposited reagents. In the full data, about 2,900 (16%) were called active. 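Calls are made per well; low scores hint the gene aids the LPS response, high scores that it dampens it.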 Repeated entries: four replicate wells of each siRNA pool.

Aim: 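Genes whose knock-down alters the TNF-alpha reporter response to LPS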 (primary screen)
Cells: human THP-1 monocytic leukaemia cells, TNF dual-luciferase reporter clone, PMA-differentiated to macrophage-like cells
Reagents: siRNA pool against human genes, 50 nM
Time to read-out: LPS for 4 h, given about 3 days after siRNA transfection
Treatment: bacterial LPS (TLR4 ligand), 10 ng/ml
Measured: 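TNF firefly reporter luminescence divided by renilla, normalised to the plate median, then turned into a robust z-score for each replicate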
Scale: TNF reporter robust z-score: higher = stronger TNF reporter response to LPS
Call rule: 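Each well counts as active if its z-score is over 2.8 or under -1.5; controls are left without a call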

BORCS8-MEF2B (BORCS8-MEF2B readthrough)
- TNF reporter robust z-score: -1.2
- activity call: inactive

BORCS8-MEF2B (BORCS8-MEF2B readthrough)
- TNF reporter robust z-score: -1.68
- activity call: active

BORCS8-MEF2B (BORCS8-MEF2B readthrough)
- TNF reporter robust z-score: -1.69
- activity call: active

BORCS8-MEF2B (BORCS8-MEF2B readthrough)
- TNF reporter robust z-score: -0.85
- activity call: inactive

TSLIG3C (tRNA splicing ligase complex subunit 3C)
- TNF reporter robust z-score: -0.25
- activity call: inactive

TSLIG3C (tRNA splicing ligase complex subunit 3C)
- TNF reporter robust z-score: -0.46
- activity call: inactive

TSLIG3C (tRNA splicing ligase complex subunit 3C)
- TNF reporter robust z-score: -0.71
- activity call: inactive

TSLIG3C (tRNA splicing ligase complex subunit 3C)
- TNF reporter robust z-score: -0.58
- activity call: inactive

OR51A4 (olfactory receptor family 51 subfamily A member 4)
- TNF reporter robust z-score: -0.28
- activity call: inactive

OR51A4 (olfactory receptor family 51 subfamily A member 4)
- TNF reporter robust z-score: -0.19
- activity call: inactive

OR51A4 (olfactory receptor family 51 subfamily A member 4)
- TNF reporter robust z-score: -1.55
- activity call: active

OR51A4 (olfactory receptor family 51 subfamily A member 4)
- TNF reporter robust z-score: -0.18
- activity call: inactive

BTRC
- TNF reporter robust z-score: 8.59
- activity call: active

BTRC
- TNF reporter robust z-score: 1.99
- activity call: inactive

BTRC
- TNF reporter robust z-score: 3.05
- activity call: active

BTRC
- TNF reporter robust z-score: 7.27
- activity call: active

LRRC52 (leucine rich repeat containing 52)
- TNF reporter robust z-score: -0.92
- activity call: inactive

LRRC52 (leucine rich repeat containing 52)
- TNF reporter robust z-score: -0.94
- activity call: inactive

LRRC52 (leucine rich repeat containing 52)
- TNF reporter robust z-score: -0.69
- activity call: inactive

LRRC52 (leucine rich repeat containing 52)
- TNF reporter robust z-score: -0.68
- activity call: inactive

Further entries follow:
RPL24 (ribosomal protein L24)
- TNF reporter robust z-score: 0.35
- activity call: inactive

RPL24 (ribosomal protein L24)
- TNF reporter robust z-score: -1.22
- activity call: inactive

RPL24 (ribosomal protein L24)
- TNF reporter robust z-score: -1.12
- activity call: inactive

RPL24 (ribosomal protein L24)
- TNF reporter robust z-score: -1.51
- activity call: active

CCL26 (C-C motif chemokine ligand 26)
- TNF reporter robust z-score: 0.42
- activity call: inactive

CCL26 (C-C motif chemokine ligand 26)
- TNF reporter robust z-score: 0.59
- activity call: inactive

CCL26 (C-C motif chemokine ligand 26)
- TNF reporter robust z-score: 0.35
- activity call: inactive

CCL26 (C-C motif chemokine ligand 26)
- TNF reporter robust z-score: 0.51
- activity call: inactive

NATD1 (N-acetyltransferase domain containing 1)
- TNF reporter robust z-score: 3.08
- activity call: active

NATD1 (N-acetyltransferase domain containing 1)
- TNF reporter robust z-score: 3.81
- activity call: active

NATD1 (N-acetyltransferase domain containing 1)
- TNF reporter robust z-score: 1.75
- activity call: inactive

NATD1 (N-acetyltransferase domain containing 1)
- TNF reporter robust z-score: 0.45
- activity call: inactive
